{"source": "PubChem BioAssay AID1347423", "about": "(Functional Genomics Laboratory (NCATS/FGL), 2020)", "note": "In all, about 52,000 sequences went through this assay and about 210 (0.4%) were called active.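 Rule for the calls: active = gene whose silencing raises cell survival under the drug, median off-target-corrected z-score across its silencing RNAs 2 or more; inactive = the rest.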 The list shows a part of the results.", "data": [{"assay": "Resistance to Poly (ADP-Ribose) Polymerase inhibitor: Gene Identification via Genome-wide siRNA Screen", "settings": "mouse BRCA2 R2336H ES cells, olaparib, CellTiter-Glo viability; active compounds read high", "procedure,_shortened": "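Mouse BRCA2 R2336H ES cells were reverse-transfected with siRNA (20 nM final), treated at 48 h with 500 nM olaparib, and read by CellTiter-Glo after 72 h. Scores: MAD-based z per siRNA, median per gene, seed off-target correction.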", "values": [{"sequence": "CACUGAACAGAUCAGAGCATT against 1110013L07Rik", "z-score": "inactive: -1.64"}, {"sequence": "CCACAGCAAGAUGUGUAUGTT against Rnf125", "z-score": "inactive: -0.0429"}, {"sequence": "GGUGAUUCUGGAUAAAUACTT against Tmprss4", "z-score": "inactive: 0.915"}, {"sequence": "GGAAGCGUAUUACGAAAGATT against 2810441A10Rik", "z-score": "inactive: 0.172"}, {"sequence": "GGGUAACUGGUUUGUAUGATT against C920025J10", "z-score": "inactive: -0.212"}, {"sequence": "GGAAAUGACUUGUGAUGAUTT against Pik3ap1", "z-score": "inactive: 2.55"}, {"sequence": "GCAGUUGGGCUCCUAUGAUTT against Mrps16", "z-score": "inactive: -1.29"}, {"sequence": "GGCAUGAUGUUCAUGGAUATT against Nup62", "z-score": "inactive: 1.81"}, {"sequence": "GCAAUCCUAUGAAGUUAAATT against 1700025J14Rik", "z-score": "inactive: -1.86"}, {"sequence": "CCCAAUAACAUCUUAAGAUTT against Lyn", "z-score": "inactive: -0.00574"}, {"sequence": "ACUCCUAUGAGCUAGCUGUTT against 2410039E07Rik", "z-score": "inactive: 0.372"}, {"sequence": "GGAUCUGAUCCAGACUUCUTT against Ndrl", "z-score": "inactive: -2.16"}, {"sequence": "GGGAUAGCUGUCACCUUCUTT against Rad9", "z-score": "inactive: -0.678"}, {"sequence": "AACACGGCUCUAGCCAAUCTT against Ypel4", "z-score": "inactive: -0.524"}, {"sequence": "GGCAUUUUAGUAAUAAGCATT against Mkln1", "z-score": "inactive: -0.101"}, {"sequence": "GGAACGAAUGAAAAGACUUTT against Tpp2", "z-score": "inactive: -0.716"}, {"sequence": "GGAAGUUGACUCCAUUUCCTT against Gpr143", "z-score": "inactive: 0.106"}, {"sequence": "GGUUACAGUGACACAGCCUTT against Slc16a8", "z-score": "inactive: -0.943"}, {"sequence": "GGAUUUUAGCUCUGAUUCATT against D130067I03Rik", "z-score": "inactive: -0.692"}, {"sequence": "GGAAAAAUUGUGCUCAACUTT against Suv420h1", "z-score": "inactive: 0.92"}, {"sequence": "GGAGAUGAACAAGGACCUATT against Apoa1", "z-score": "active: 1.02"}, {"sequence": "CCGUGAGGAUUUCAAGCGATT against P2ry6", "z-score": "inactive: -0.516"}, {"sequence": "CCACGAGUAGUAAAAAAUATT against AI504432", "z-score": "inactive: -0.651"}, {"sequence": "CCUUAGACCUAACAAACAATT against Rab23", "z-score": "inactive: 0.934"}, {"sequence": "GCGAAGUCAAGCCUACUUUTT against B3gat1", "z-score": "inactive: 0.318"}, {"sequence": "GGUGUAUGAAUCUGUGCUGTT against Cldn5", "z-score": "inactive: -0.461"}, {"sequence": "GGUGUGUUAUCGAUUUUACTT against Fut2", "z-score": "inactive: 0.773"}, {"sequence": "CGUGCAGAUACCACUUCACTT against Podn", "z-score": "inactive: -1.19"}, {"sequence": "GGCUCUUACAUAAACUCUATT against Tecta", "z-score": "inactive: 0.205"}]}]}
